From paper PMC11915804, “In situ structures of the contractile nanomachine myophage Mu in both its extended and contracted states” (Journal of Virology, 2025)
These are yes or no findings as the source states them, for the method shown. Binding calls can cover weak binding; strength is not graded here.

Legend:
tail sheath protein gp39 [1] = target: T1, tail sheath protein gp39 (phage Mu, UniProt P79678 1-495); assay: cryo-EM structure; purified phage Mu virions in the contracted state: diluted 10-fold with 5 M urea, 2 h at 37°C, urea removed by ultrafiltration; baseplate, DNA and TMP lost; 3.6 Å (portal-adaptor), 3.8 Å (terminator-tail); both purified
T1 construct: tail sheath protein gp39 of myophage Mu, as it stands in the virion; Hexameric rings, 30 of them stacked in the tail; Model deposited here; source: phage Mu virions grown on E. coli (ATCC 23724), purified (PEG 8000/NaCl precipitation, CsCl gradient)
T1 sequence (looked up): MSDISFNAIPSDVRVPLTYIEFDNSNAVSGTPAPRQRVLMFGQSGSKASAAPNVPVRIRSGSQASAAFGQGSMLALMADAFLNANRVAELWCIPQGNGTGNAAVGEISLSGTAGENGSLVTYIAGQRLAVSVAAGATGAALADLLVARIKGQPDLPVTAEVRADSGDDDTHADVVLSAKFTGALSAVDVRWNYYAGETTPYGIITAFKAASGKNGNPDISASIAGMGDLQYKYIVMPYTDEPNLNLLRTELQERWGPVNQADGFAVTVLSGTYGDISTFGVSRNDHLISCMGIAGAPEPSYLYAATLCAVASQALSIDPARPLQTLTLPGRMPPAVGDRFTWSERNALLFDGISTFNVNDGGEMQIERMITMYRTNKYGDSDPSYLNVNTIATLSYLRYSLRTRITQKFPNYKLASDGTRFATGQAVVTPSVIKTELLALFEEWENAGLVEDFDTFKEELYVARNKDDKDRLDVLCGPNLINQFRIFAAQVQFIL

[2] = target: T2, tail tube protein gp40 (phage Mu) (UniProt P79679); assay: as above
T2 sequence: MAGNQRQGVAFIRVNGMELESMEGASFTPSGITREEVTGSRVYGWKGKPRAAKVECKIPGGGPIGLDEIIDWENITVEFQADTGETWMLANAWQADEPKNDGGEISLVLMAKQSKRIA

tail sheath protein gp39 [3] = target: T1, tail sheath protein gp39; assay: cryo-EM structure; purified phage Mu virions in the extended state (native phage) in phage buffer (10 mM MgCl2, 5 mM NaCl, 10 mM Tris-HCl, pH 7.4); icosahedral, symmetry-mismatch and local reconstruction; 3.2 Å (3-fold capsid), 3.4 Å (portal-adaptor), 3.5 Å (terminator-tail), 3.3 Å (baseplate); both purified
[4] = target: T2, tail tube protein gp40 (phage Mu); assay: as above
hub protein gp44 = target: T3, hub protein gp44 (phage Mu, UniProt P08558 1-379); assay: as above
T3 construct: baseplate hub protein gp44 of myophage Mu, as it stands in the virion; Trimer; Model deposited here; source: phage Mu virions grown on E. coli (ATCC 23724), purified (PEG 8000/NaCl precipitation, CsCl gradient)
T3 sequence (looked up): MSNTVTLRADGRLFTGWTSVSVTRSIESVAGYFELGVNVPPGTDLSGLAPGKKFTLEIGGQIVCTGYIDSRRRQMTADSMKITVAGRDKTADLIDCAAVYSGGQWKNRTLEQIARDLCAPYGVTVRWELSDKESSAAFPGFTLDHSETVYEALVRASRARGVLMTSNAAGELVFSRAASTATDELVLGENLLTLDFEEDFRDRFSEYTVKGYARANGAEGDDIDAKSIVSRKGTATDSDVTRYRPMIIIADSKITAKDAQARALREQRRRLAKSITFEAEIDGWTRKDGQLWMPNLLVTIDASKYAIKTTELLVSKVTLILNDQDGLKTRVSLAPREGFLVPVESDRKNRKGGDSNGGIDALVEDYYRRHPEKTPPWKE

[5] = target: T4, spike protein gp45 (phage Mu) (UniProt Q9T1V4); assay: as above
T4 sequence: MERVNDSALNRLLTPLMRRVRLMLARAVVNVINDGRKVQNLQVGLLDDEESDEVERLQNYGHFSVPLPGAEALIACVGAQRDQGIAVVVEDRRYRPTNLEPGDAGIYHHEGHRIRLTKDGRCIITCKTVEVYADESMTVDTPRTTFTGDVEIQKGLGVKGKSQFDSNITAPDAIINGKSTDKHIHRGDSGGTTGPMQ

Measured: binding

tail terminator protein gp37 (phage Mu)
binds: tail sheath protein gp39 [1] | [2] | tail sheath protein gp39 [3] | [4]

tape measure protein (TMP) gp42 (phage Mu)
binds: hub protein gp44 | [5]
